Experiment [1] has as its target ErbB2 (Her2) (human (endogenous in Hek293)) (UniProt P04626). Put plainly: proximity ligation; Duolink In situ Orange kit on fixed Hek293 cells overexpressing NoxO1 or empty vector; two primary antibodies 1:500.
Experiment [2] has as its target T1, NADPH oxidase organizer 1 (NoxO1), myc-tagged, overexpressed (human) (UniProt Q8NFA2).
T1 sequence: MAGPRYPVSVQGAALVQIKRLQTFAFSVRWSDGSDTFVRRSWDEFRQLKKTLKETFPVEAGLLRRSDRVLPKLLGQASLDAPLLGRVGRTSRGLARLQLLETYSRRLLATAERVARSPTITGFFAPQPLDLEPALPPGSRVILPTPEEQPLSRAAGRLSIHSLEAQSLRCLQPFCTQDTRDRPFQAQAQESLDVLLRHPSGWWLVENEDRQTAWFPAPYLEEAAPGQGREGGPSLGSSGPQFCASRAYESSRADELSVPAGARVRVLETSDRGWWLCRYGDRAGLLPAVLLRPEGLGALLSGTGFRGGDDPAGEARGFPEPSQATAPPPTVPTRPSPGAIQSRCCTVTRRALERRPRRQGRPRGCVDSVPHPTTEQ
Described as above.

Protein sequences, listed by entry. Tags and fused reporters are not part of them.
UniProt Q96RT1: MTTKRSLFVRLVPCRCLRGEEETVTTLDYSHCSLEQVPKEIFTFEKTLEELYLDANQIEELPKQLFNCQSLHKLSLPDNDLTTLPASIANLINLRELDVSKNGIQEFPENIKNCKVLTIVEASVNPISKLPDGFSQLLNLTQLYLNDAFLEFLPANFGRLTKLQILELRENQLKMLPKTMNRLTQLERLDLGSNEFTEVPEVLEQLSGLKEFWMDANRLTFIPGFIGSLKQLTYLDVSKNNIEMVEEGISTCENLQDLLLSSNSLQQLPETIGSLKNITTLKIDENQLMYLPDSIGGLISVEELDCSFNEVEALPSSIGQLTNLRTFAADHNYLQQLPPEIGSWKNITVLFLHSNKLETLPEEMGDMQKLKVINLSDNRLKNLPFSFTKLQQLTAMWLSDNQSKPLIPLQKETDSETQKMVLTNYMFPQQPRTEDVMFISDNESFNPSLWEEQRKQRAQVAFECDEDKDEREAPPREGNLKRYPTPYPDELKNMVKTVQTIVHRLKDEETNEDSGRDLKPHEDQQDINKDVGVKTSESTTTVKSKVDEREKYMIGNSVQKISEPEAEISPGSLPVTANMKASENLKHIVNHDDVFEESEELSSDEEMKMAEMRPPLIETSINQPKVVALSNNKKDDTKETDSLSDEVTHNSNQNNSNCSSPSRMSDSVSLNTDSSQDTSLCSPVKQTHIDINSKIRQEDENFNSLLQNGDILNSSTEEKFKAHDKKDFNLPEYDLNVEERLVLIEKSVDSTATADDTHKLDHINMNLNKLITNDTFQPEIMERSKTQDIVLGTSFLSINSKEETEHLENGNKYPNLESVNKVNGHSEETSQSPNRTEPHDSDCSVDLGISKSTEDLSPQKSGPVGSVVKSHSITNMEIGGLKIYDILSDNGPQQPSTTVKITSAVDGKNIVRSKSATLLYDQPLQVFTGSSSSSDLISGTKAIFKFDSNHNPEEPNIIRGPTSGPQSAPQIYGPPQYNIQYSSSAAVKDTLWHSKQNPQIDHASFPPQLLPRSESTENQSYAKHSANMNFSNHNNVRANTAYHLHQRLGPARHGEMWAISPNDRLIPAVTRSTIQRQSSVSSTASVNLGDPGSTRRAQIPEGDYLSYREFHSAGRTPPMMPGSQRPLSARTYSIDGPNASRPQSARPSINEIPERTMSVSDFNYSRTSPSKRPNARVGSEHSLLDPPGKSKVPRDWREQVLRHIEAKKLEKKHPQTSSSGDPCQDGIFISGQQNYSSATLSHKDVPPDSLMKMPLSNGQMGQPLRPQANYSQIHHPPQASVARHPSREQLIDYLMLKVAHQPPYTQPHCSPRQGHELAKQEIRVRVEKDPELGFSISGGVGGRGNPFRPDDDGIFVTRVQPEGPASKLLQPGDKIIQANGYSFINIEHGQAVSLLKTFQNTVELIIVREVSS

For experiment [3], the target named is T1, NADPH oxidase organizer 1 (NoxO1), myc-tagged, overexpressed (human). Put plainly: co-IP; Dynabeads Protein G IP kit; 500 ug lysate; target antibodies or IgG control overnight at 4 °C; the antibody used and the panel that shows it are not told.
The target is the same in experiment [4]. As to the kind of experiment: proximity ligation; as a4, with cells treated with EGF before fixation; detection of myc (NoxO1) and EGFR.

Among the data in publication PMC11536020 are binding values, retold here.

These are yes or no findings as the source states them, for the method shown. In cells and extracts the contact can be indirect. Some results given as binding are weak or reduced against the parent protein; the word gives no strength. For some assays here: Where a sequence is shown, tags or fusion partners need not be part of it.

As to “ErbB2 interacting protein (Erbin) (from UniProt Q96RT1 1-1412)”, the binding result in experiment [1], in experiment [2] and in experiment [3] was “binds” in each case.

On to “Epidermal growth factor receptor (EGFR) (from UniProt P00533 25-1210)”, for which the binding result is listed as “binds” in experiment [2] and “no binding (condition: after EGF stimulation of the cells)” in experiment [4].
